B1: PAF2 (alpha ring of the 20S proteasome proteolytic unit) (protein, UniProt O23712 1-277)
chain: MFRNQYDTDVTTWSPTGRLFQVEYAMEAVKQGSAAIGLRSRSHVVLACVNKAQSELSSHQRKIFKVDDHIGVAIAGLTADGRVLSRYMRSESINHSFTYESPLPVGRLVVHLADKAQVCTQRSWKRPYGVGLLVGGLDESGAHLYYNCPSGNYFEYQAFAIGSRSQAAKTYLERKFESFQESSKEDLIKDAIMAIRETLQGETLKSSLCTVSVLGVDEPFHFLDQESIQKVIDTFEKVPEEEEDAGEGEAEPEAAPGAAGTGEQGGSGDQDVAPMEI

Protein sequences, listed by entry. Tags and fused reporters are not part of them.
UniProt Q8GY23: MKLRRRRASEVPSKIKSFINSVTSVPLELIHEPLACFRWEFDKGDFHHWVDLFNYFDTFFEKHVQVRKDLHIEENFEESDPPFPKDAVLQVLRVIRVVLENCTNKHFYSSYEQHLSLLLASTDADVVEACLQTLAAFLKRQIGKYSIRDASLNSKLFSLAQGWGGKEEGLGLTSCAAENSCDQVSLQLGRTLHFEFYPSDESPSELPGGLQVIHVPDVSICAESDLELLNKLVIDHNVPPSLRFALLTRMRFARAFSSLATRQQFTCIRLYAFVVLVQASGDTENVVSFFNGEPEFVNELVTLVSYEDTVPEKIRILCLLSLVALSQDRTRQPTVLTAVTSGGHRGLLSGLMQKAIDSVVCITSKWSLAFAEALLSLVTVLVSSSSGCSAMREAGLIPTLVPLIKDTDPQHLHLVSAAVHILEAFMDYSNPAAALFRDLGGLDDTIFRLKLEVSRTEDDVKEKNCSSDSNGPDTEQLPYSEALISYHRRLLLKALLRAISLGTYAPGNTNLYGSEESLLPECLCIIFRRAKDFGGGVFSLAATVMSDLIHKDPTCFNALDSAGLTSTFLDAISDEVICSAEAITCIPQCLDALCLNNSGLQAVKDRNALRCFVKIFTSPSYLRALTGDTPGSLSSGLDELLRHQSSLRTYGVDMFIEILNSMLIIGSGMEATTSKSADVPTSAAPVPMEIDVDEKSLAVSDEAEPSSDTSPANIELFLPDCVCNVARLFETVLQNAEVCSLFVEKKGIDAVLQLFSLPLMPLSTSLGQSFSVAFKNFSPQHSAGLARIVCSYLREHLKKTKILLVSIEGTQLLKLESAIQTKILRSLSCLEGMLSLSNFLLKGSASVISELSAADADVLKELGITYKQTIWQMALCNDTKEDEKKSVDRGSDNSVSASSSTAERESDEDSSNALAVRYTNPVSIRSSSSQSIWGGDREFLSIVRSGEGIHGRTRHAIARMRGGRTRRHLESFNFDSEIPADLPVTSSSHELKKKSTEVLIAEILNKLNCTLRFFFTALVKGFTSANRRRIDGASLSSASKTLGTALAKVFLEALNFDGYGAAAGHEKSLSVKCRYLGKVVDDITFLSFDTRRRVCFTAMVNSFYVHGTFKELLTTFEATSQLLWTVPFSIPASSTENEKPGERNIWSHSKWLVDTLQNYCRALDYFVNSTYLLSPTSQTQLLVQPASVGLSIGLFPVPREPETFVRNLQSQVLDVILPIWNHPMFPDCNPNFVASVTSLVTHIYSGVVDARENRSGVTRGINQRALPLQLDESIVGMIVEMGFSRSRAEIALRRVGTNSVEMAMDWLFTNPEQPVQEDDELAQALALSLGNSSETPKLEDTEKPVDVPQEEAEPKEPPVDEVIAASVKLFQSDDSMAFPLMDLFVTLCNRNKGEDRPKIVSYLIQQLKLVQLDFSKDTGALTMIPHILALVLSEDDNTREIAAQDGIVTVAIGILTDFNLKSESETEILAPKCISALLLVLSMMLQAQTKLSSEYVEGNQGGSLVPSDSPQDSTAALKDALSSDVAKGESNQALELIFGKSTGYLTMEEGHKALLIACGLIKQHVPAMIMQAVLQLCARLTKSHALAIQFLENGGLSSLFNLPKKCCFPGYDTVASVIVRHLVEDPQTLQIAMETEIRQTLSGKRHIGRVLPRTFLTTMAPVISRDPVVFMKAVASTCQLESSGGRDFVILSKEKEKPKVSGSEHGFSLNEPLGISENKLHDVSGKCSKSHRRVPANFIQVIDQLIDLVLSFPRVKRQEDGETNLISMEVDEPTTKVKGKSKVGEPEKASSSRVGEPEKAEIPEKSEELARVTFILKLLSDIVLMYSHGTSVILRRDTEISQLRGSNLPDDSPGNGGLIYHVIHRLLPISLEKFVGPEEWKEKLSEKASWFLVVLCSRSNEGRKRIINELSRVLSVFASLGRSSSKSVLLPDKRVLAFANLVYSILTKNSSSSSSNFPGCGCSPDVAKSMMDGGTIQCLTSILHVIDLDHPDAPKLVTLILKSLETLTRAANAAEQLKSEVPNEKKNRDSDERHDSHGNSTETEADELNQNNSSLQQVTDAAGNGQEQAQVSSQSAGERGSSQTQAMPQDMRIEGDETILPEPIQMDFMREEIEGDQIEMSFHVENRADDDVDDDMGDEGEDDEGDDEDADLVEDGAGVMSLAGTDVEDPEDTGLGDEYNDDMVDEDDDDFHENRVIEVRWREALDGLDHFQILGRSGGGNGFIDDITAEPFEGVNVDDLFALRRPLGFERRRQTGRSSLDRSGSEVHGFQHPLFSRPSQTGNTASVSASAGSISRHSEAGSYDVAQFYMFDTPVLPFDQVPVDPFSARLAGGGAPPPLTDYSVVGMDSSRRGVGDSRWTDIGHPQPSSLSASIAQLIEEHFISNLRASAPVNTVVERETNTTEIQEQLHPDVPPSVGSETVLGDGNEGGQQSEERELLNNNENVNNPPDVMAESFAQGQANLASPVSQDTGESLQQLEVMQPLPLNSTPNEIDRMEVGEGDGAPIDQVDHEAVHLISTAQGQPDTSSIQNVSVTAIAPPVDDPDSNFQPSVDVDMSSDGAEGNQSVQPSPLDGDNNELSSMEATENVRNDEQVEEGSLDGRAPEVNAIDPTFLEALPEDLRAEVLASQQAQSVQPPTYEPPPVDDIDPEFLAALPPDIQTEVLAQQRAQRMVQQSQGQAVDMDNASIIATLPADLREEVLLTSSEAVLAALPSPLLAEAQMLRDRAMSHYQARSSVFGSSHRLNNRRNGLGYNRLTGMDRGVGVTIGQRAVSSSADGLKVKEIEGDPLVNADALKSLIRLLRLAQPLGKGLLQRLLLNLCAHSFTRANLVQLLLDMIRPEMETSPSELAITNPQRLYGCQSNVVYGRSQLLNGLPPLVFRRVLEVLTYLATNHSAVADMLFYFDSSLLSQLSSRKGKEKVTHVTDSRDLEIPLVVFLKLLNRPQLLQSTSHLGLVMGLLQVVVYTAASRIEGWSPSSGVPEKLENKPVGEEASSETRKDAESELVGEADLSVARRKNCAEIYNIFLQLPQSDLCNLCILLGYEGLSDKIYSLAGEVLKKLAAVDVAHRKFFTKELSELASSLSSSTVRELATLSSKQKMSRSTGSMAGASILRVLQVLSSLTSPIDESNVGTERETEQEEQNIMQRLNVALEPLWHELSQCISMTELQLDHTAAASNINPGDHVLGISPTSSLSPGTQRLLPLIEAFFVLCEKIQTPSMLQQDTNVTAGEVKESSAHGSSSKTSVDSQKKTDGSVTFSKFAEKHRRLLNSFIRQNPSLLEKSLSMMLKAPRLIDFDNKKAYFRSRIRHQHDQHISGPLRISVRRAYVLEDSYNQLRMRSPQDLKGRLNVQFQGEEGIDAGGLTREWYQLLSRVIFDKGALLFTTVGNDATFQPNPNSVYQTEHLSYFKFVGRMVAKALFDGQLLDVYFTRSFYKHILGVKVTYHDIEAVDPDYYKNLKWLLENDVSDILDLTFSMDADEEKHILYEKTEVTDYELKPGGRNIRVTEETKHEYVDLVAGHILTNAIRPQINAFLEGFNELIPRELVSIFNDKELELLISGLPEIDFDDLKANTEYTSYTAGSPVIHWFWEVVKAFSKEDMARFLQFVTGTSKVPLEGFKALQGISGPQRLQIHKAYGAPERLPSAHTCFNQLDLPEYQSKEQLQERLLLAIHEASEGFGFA
UniProt Q9FIB6: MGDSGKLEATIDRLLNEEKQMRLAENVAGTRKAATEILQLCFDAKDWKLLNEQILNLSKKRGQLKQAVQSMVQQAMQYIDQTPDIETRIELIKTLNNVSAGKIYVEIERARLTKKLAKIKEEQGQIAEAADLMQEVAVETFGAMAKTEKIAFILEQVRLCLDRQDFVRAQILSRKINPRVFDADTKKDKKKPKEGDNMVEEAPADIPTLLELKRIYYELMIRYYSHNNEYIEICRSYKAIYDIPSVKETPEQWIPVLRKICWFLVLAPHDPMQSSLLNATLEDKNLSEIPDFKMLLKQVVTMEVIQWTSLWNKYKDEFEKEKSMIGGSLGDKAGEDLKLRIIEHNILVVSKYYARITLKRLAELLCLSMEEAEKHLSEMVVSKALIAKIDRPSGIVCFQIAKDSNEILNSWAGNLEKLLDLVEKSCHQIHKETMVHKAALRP
UniProt Q9LYZ7: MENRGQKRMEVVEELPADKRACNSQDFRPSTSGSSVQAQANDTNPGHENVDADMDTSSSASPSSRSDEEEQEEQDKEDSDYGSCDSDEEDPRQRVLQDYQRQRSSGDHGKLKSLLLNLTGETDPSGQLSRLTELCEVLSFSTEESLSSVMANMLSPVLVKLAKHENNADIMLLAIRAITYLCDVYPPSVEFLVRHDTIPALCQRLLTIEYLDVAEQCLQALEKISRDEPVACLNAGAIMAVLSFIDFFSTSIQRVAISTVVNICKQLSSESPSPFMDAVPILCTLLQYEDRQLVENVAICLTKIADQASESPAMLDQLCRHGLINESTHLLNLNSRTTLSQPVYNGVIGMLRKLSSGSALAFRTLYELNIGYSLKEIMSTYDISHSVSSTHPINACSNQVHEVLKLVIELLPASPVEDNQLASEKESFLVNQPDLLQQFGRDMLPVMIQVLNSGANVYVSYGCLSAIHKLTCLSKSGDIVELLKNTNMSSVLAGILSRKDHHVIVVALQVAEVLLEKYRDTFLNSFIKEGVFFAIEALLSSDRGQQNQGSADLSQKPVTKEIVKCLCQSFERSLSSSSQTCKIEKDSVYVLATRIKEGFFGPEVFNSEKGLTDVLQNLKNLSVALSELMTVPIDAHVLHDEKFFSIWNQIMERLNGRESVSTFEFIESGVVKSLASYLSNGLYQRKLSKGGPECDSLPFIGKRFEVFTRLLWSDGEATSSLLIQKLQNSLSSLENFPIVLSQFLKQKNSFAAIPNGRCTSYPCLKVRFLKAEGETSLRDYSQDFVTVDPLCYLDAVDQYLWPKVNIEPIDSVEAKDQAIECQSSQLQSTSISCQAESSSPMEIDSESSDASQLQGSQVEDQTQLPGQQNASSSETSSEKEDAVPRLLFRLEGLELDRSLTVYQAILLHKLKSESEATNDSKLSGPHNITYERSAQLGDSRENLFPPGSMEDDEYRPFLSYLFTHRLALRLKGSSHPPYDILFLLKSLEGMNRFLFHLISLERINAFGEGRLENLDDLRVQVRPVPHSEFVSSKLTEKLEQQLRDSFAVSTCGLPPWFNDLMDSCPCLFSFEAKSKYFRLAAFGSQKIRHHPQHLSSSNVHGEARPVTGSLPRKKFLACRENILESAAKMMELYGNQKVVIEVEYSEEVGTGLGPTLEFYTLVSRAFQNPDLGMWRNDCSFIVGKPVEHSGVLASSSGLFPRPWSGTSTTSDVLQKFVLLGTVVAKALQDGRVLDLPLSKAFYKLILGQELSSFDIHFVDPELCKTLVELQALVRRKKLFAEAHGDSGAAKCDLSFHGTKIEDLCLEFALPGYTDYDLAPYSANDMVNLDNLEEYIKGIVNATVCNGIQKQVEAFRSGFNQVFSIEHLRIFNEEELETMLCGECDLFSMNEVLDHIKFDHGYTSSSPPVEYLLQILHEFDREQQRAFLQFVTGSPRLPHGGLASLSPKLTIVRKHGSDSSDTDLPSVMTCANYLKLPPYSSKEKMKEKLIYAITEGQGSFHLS

Results are given in words; binding and its absence hold for the method and conditions named. Binding seen in cells or lysates may run through a third protein. These calls come from enrichment with a bait or labelling near it, and not all partners need be listed. Sequences can lack the tags named with a protein.

The target in this test is T1, GST-MAPKKK18 (Arabidopsis thaliana) (UniProt Q9ZVP5).
T1 sequence: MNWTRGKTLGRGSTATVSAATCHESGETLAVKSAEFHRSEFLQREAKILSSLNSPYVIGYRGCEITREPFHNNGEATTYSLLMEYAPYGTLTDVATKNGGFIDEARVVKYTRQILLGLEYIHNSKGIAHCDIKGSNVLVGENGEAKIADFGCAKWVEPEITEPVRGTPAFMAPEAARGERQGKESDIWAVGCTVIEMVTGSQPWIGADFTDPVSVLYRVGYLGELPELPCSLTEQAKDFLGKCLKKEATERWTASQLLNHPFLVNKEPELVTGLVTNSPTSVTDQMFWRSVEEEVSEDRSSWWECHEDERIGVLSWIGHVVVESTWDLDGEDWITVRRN
The test is described as follows: affinity purification with mass spectrometry; recombinant GST-MAPKKK18 incubated with total extract of 7-d-old A. thaliana WT Col-0 seedlings (1× PBS pH 7.4, NaCl, 0.1% NP-40, 1 mM DTT, PMSF); bound proteins identified by LC-MS/MS (Orbitrap Velos, Mascot, TAIR10); GST-CDPK34 as control; only the target purified.
Turning to “KEG E3 ubiquitin ligase (endogenous) (from UniProt Q9FY48 1-1625) (enzyme)”, the binding entry is recorded as “binds”.

“UPL1 HECT-type E3 ubiquitin ligase (endogenous) (from UniProt Q8GY23 1-3681) (enzyme)”: the binding entry is listed as “binds”.

Take “RPN5a (19S regulatory unit of the 26S proteasome) (from UniProt Q9FIB6 1-442)”: the binding result is on record as “binds”.

In the case of “UPL4 HECT-type E3 ubiquitin ligase (endogenous) (from UniProt Q9LYZ7 1-1502) (enzyme)”, the binding result is on record as “binds”.

On to B1, for which the binding entry is “binds”.

The values above are taken from publication PMC11020294.
